Experimental data: PubChem BioAssay AID1259405 (NCATS, 2018)
Aim: 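Silenced genes that increase secreted GFP made by CHO cells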 (primary screen). Cell system: Chinese hamster CHO-K1 ovary cells with stable secreted eGFP expression. Reagent: single siRNA against mouse genes, 0.8 pmol siRNA per well (2 µl of 400 nM stock). Duration: 3 days. Read-out: 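Per-well intracellular GFP measured by laser scanning cytometry, plus viability from ATP luminescence, each relative to plate median of non-targeting control wells, in %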. Scale: GFP, % of control: higher = more GFP per well, higher productivity. Rule for the call: 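Called active when intracellular GFP, relative to negative control, is at or above 120%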.
This is a random part of about 50,000 reagents tested. About 4,000 of them (8%) count as active. 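Mouse siRNA library applied to hamster cells; one well for each siRNA.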 Unmarked entries are inactive. The numbers tell different reagents against one gene apart. Further read-outs or replicates are left out here.

GFP, % of control, by gene and reagent
Rasa2: #1 123 (active); #2 97.2; #3 52.5
Or52h2: #1 157 (active); #2 71.1; #3 27.4
Nt5m: #1 51.1; #2 93; #3 82.5
Mcts1: #1 90.3; #2 73.6; #3 53.1
Clec4f: #1 55.9; #2 81.2; #3 94.5
Tlr12: #1 77.9; #2 50.8; #3 70.7
Lpxn: #1 101; #2 110
Or1l8: #1 142 (active); #2 76.7; #3 135 (active)
Npm2: #1 67.9; #2 75.2
Ca5b: #1 90.7; #2 55.3
Or5w19: #1 85.4; #2 77.7; #3 74.8
Astn2: #1 98.5; #2 68.6; #3 83.2
1700123K08Rik: #1 25.6; #2 74; #3 65.7
Orm1: #1 93.3; #2 36; #3 72.5
Eya1: #1 145 (active); #2 92.7; #3 61.8
Noc2l: #1 77.2; #2 80.8; #3 71.2
Prr3: #1 115; #2 58.9; #3 45.2
Umodl1: #1 75.4; #2 84.2; #3 196 (active)
Egr1: #1 73.8; #2 95.5
Irf7: #1 78.6; #2 85; #3 83.6
A630023P12Rik: #1 62.5; #2 34.5; #3 66.7
Garin2: #1 123 (active); #2 56.3; #3 141 (active)
Semp2l2a: #1 63.5; #2 39.3; #3 71.3
Il1bos: #1 77; #2 30.3; #3 68.8
Tcl1b1: #1 49.7; #2 62.6; #3 99
Mims2: #1 39.5; #2 85.7; #3 68.1
Pcdhga11: #1 79.5; #2 37.2; #3 32.9
Nab2: #1 65.7; #2 77.2; #3 85.1
Anxa2: #1 102; #2 82.7; #3 67.5
Psmd14: #1 193 (active); #2 97.5

Ordered by “GFP, % of control” (highest first): some entries from above
Gene	reagent	GFP, % of control
Psmd14	1	193 (active)
Anxa2	1	102
Nab2	3	85.1
Anxa2	2	82.7
Pcdhga11	1	79.5
Nab2	2	77.2
Anxa2	3	67.5
Nab2	1	65.7
Pcdhga11	2	37.2
Pcdhga11	3	32.9
